Read-outs that look alike come from different tables or passages of the source.
Q: With `NCCC[C@H](N)C(=O)O.O=C(O)Cc1ccccc1` [L-ornithine phenyl acetate] as the compound, how does the “Results (crystalline form)” value (Test 58, Controlled Cool (−21° C.), NMP) read?
A: Form II

Q: What about the “Results (crystalline form)” value (Test 68, Controlled Cool (4° C.), EtOAc/cyclohexane (1:2)) of the same compound?
A: No Solid

Q: What about the “Results (crystalline form)” value (Test 69, Controlled Cool (−21° C.), EtOAc/cyclohexane (1:2)) of the same compound?
A: No Solid

Q: And the “Results (crystalline form)” value (Test 79, Controlled Cool (4° C.), etOAc/toluene (1:2))?
A: No Solid

Q: And the “Results (crystalline form)” value (Test 80, Controlled Cool (−21° C.), etOAc/toluene (1:2))?
A: Form II

Q: What about the “Results (crystalline form)” value (Test 90, Controlled Cool (4° C.), IPA/diisopropyl ether (1:2)) of the same compound?
A: Form V

Q: What about the “Results (crystalline form)” value (Test 91, Controlled Cool (−21° C.), IPA/diisopropyl ether (1:2)) of the same compound?
A: Form II

Q: And the “Results (crystalline form)” value (Test 101, Controlled Cool (4° C.), DIPE)?
A: No Solid

Q: What about the “Results (crystalline form)” value (Test 102, Controlled Cool (−21° C.), DIPE) of the same compound?
A: Form V

Q: And the “Results (crystalline form)” value (Test 112, Controlled Cool (4° C.), nitromethane/water (20%))?
A: No Solid

Q: And the “Results (crystalline form)” value (Test 113, Controlled Cool (−21° C.), nitromethane/water (20%))?
A: No Solid

Q: What about the “Results (crystalline form)” value (Test 123, Controlled Cool (4° C.), acetone/water (20%)) of the same compound?
A: Form II

Q: What about the “Results (crystalline form)” value (Test 124, Controlled Cool (−21° C.), acetone/water (20%)) of the same compound?
A: Form II

Q: And the “Results (crystalline form)” value (Test 134, Controlled Cool (4° C.), 1,4 dioxane/water (20%))?
A: Form II

Q: And the “Results (crystalline form)” value (Test 135, Controlled Cool (−21° C.), 1,4 dioxane/water (20%))?
A: No Solid

Q: And the “Results (crystalline form)” value (Test 145, Controlled Cool (4° C.), diethyl ether)?
A: No Solid

Q: What about the “Results (crystalline form)” value (Test 146, Controlled Cool (−21° C.), diethyl ether) of the same compound?
A: No Solid

Q: And the “Results (crystalline form)” value (Test 156, Controlled Cool (4° C.), ethylene glycol)?
A: No Solid

Q: And the “Results (crystalline form)” value (Test 157, Controlled Cool (−21° C.), ethylene glycol)?
A: No Solid

Q: What about the “Results (crystalline form)” value (Test 167, Controlled Cool (4° C.), meOAc/water (20%)) of the same compound?
A: No Solid

Q: What about the “Results (crystalline form)” value (Test 168, Controlled Cool (−21° C.), meOAc/water (20%)) of the same compound?
A: No Solid

Q: And the “Results (crystalline form)” value (Test 178, Controlled Cool (4° C.), meOH/acetone (50:50))?
A: No Solid

Q: And the “Results (crystalline form)” value (Test 179, Controlled Cool (−21° C.), meOH/acetone (50:50))?
A: No Solid

Q: And the “Results (crystalline form)” value (Test 189, Controlled Cool (4° C.), DMF)?
A: Form II

Q: And the “Results (crystalline form)” value (Test 190, Controlled Cool (−21° C.), DMF)?
A: Form II

Q: What about the “Results (crystalline form of precipitate)” value (Test 200, Controlled Cool (4° C.), solvent 2-butanol) of the same compound?
A: No Solid

Q: What about the “Results (crystalline form of precipitate)” value (Test 201, Controlled Cool (−21° C.), solvent 2-butanol) of the same compound?
A: No Solid

Q: And the “Results (crystalline form of precipitate)” value (Test 211, Controlled Cool (4° C.), solvent cumene)?
A: No Solid

Q: What about the “Results (crystalline form of precipitate)” value (Test 212, Controlled Cool (−21° C.), solvent cumene) of the same compound?
A: No Solid

Q: And the “Results (crystalline form of precipitate)” value (Test 222, Controlled Cool (4° C.), solvent ethyl formate)?
A: No Solid

Q: And the “Results (crystalline form of precipitate)” value (Test 223, Controlled Cool (−21° C.), solvent ethyl formate)?
A: Form II

Q: And the “Results (crystalline form of precipitate)” value (Test 233, Controlled Cool (4° C.), solvent isobutyl acetate)?
A: No Solid

Q: What about the “Results (crystalline form of precipitate)” value (Test 234, Controlled Cool (−21° C.), solvent isobutyl acetate) of the same compound?
A: Form II

Q: And the “Results (crystalline form of precipitate)” value (Test 244, Controlled Cool (4° C.), solvent 3-methyl-1-butanol)?
A: No Solid

Q: What about the “Results (crystalline form of precipitate)” value (Test 245, Controlled Cool (−21° C.), solvent 3-methyl-1-butanol) of the same compound?
A: No Solid

Q: And the “Results (crystalline form of precipitate)” value (Test 255, Controlled Cool (4° C.), solvent anisole)?
A: No Solid

Q: What about the “Results (crystalline form of precipitate)” value (Test 256, Controlled Cool (−21° C.), solvent anisole) of the same compound?
A: Form II

Q: What about the “Results (crystalline form of precipitate)” value (Test 266, Controlled Cool (4° C.), solvent IPA/isopropyl acetate (1:2)) of the same compound?
A: No Solid

Q: What about the “Results (crystalline form of precipitate)” value (Test 267, Controlled Cool (−21° C.), solvent IPA/isopropyl acetate (1:2)) of the same compound?
A: No Solid

Q: And the “Results (crystalline form of precipitate)” value (Test 277, Controlled Cool (4° C.), solvent EtOH: 1% H20)?
A: No Solid

Q: And the “Results (crystalline form of precipitate)” value (Test 278, Controlled Cool (−21° C.), solvent EtOH: 1% H20)?
A: No Solid

Q: What about the “Results (crystalline form of precipitate)” value (Test 288, Controlled Cool (4° C.), solvent EtOH: 3% H20) of the same compound?
A: No Solid

Q: And the “Results (crystalline form of precipitate)” value (Test 289, Controlled Cool (−21° C.), solvent EtOH: 3% H20)?
A: No Solid

Q: What about the “Results (crystalline form of precipitate)” value (Test 299, Controlled Cool (4° C.), solvent EtOH: 5% H20) of the same compound?
A: No Solid

Q: What about the “Results (crystalline form of precipitate)” value (Test 300, Controlled Cool (−21° C.), solvent EtOH: 5% H20) of the same compound?
A: No Solid

Q: What about the “Results (crystalline form of precipitate)” value (Test 310, Controlled Cool (4° C.), solvent IPA: 1% H20) of the same compound?
A: No Solid

Q: And the “Results (crystalline form of precipitate)” value (Test 311, Controlled Cool (−21° C.), solvent IPA: 1% H20)?
A: No Solid

Q: And the “Results (crystalline form of precipitate)” value (Test 321, Controlled Cool (4° C.), solvent IPA: 3% H20)?
A: No Solid

Q: And the “Results (crystalline form of precipitate)” value (Test 322, Controlled Cool (−21° C.), solvent IPA: 3% H20)?
A: No Solid

Q: What about the “Results (crystalline form of precipitate)” value (Test 332, Controlled Cool (4° C.), solvent IPA: 5% H20) of the same compound?
A: No Solid

Q: What about the “Results (crystalline form of precipitate)” value (Test 333, Controlled Cool (−21° C.), solvent IPA: 5% H20) of the same compound?
A: No Solid

Q: And the “Results (crystalline form of precipitate)” value (Test 343, Controlled Cool (4° C.), solvent ACN: 1% H20)?
A: No Solid

Q: And the “Results (crystalline form of precipitate)” value (Test 344, Controlled Cool (−21° C.), solvent ACN: 1% H20)?
A: No Solid

Q: And the “Results (crystalline form of precipitate)” value (Test 354, Controlled Cool (4° C.), solvent ACN: 6% H20)?
A: No Solid

Q: What about the “Results (crystalline form of precipitate)” value (Test 355, Controlled Cool (−21° C.), solvent ACN: 6% H20) of the same compound?
A: No Solid

Q: What about the “Results (crystalline form of precipitate)” value (Test 365, Controlled Cool (4° C.), solvent ACN: 12% H20) of the same compound?
A: No Solid

Q: What about the “Results (crystalline form of precipitate)” value (Test 366, Controlled Cool (−21° C.), solvent ACN: 12% H20) of the same compound?
A: No Solid

Q: And the “Results (crystalline form of precipitate)” value (Test 376, Controlled Cool (4° C.), solvent DMF: 5% H20)?
A: No Solid

Q: And the “Results (crystalline form of precipitate)” value (Test 377, Controlled Cool (−21° C.), solvent DMF: 5% H20)?
A: No Solid

Q: What about the “Results (crystalline form of precipitate)” value (Test 387, Controlled Cool (4° C.), solvent DMF: 15% H20) of the same compound?
A: No Solid

Q: And the “Results (crystalline form of precipitate)” value (Test 388, Controlled Cool (−21° C.), solvent DMF: 15% H20)?
A: No Solid

Q: What about the “Results (crystalline form of precipitate)” value (Test 398, Controlled Cool (4° C.), solvent DMF: 30% H20) of the same compound?
A: Form II

Q: What about the “Results (crystalline form of precipitate)” value (Test 399, Controlled Cool (−21° C.), solvent DMF: 30% H20) of the same compound?
A: Form II

Q: And the “Results (crystalline form of precipitate)” value (Test 409, Controlled Cool (4° C.), 1,4-dioxane: 1% H20)?
A: No Solid

Q: What about the “Results (crystalline form of precipitate)” value (Test 410, Controlled Cool (−21° C.), 1,4-dioxane: 1% H20) of the same compound?
A: No Solid

Q: What about the “Results (crystalline form of precipitate)” value (Test 420, Controlled Cool (4° C.), 1,4-dioxane: 3% H20) of the same compound?
A: No Solid

Q: And the “Results (crystalline form of precipitate)” value (Test 421, Controlled Cool (−21° C.), 1,4-dioxane: 3% H20)?
A: No Solid

Q: What about the “Results (crystalline form of precipitate)” value (Test 431, Controlled Cool (4° C.), 1,4-dioxane: 10% H20) of the same compound?
A: No Solid

Q: What about the “Results (crystalline form of precipitate)” value (Test 432, Controlled Cool (−21° C.), 1,4-dioxane: 10% H20) of the same compound?
A: No Solid

Q: And the “Results (crystalline form of precipitate)” value (Test 442, Controlled Cool (4° C.), MeOH: 5% H20)?
A: No Solid

Q: And the “Results (crystalline form of precipitate)” value (Test 443, Controlled Cool (−21° C.), MeOH: 5% H20)?
A: No Solid

Q: What about the “Results (crystalline form of precipitate)” value (Test 453, Controlled Cool (4° C.), MeOH: 20% H20) of the same compound?
A: Form II

Q: What about the “Results (crystalline form of precipitate)” value (Test 454, Controlled Cool (−21° C.), MeOH: 20% H20) of the same compound?
A: Form II

Q: What about the “Results (crystalline form of precipitate)” value (Test 464, Controlled Cool (4° C.), MeOH: 50% H20) of the same compound?
A: Form II

Q: And the “Results (crystalline form of precipitate)” value (Test 465, Controlled Cool (−21° C.), MeOH: 50% H20)?
A: Form II

Q: And the “Results (crystalline form of precipitate)” value (Test 475, Controlled Cool (4° C.), THF: 1% H20)?
A: No Solid

Q: And the “Results (crystalline form of precipitate)” value (Test 476, Controlled Cool (−21° C.), THF: 1% H20)?
A: No Solid

Q: And the “Results (crystalline form of precipitate)” value (Test 486, Controlled Cool (4° C.), THF: 3% H20)?
A: No Solid

Q: And the “Results (crystalline form of precipitate)” value (Test 487, Controlled Cool (−21° C.), THF: 3% H20)?
A: No Solid

Q: And the “Results (crystalline form of precipitate)” value (Test 497, Controlled Cool (4° C.), THF: 5% H20)?
A: No Solid

Q: And the “Results (crystalline form of precipitate)” value (Test 498, Controlled Cool (−21° C.), THF: 5% H20)?
A: No Solid

Q: And the “Results (crystalline form of precipitate)” value (Test 508, Controlled Cool (4° C.), butan-1-ol: 1% H20)?
A: No Solid

Q: And the “Results (crystalline form of precipitate)” value (Test 509, Controlled Cool (−21° C.), butan-1-ol: 1% H20)?
A: No Solid

Q: And the “Results (crystalline form of precipitate)” value (Test 519, Controlled Cool (4° C.), butan-1-ol: 3% H20)?
A: No Solid

Q: And the “Results (crystalline form of precipitate)” value (Test 520, Controlled Cool (−21° C.), butan-1-ol: 3% H20)?
A: No Solid

Q: And the “Results (crystalline form of precipitate)” value (Test 530, Controlled Cool (4° C.), butan-1-ol: 5% H20)?
A: No Solid

Q: And the “Results (crystalline form of precipitate)” value (Test 531, Controlled Cool (−21° C.), butan-1-ol: 5% H20)?
A: No Solid

Reference: patent publication US12516015B2 (AMALIVE LIMITED, priority 2009, dated 2026)
